Holding throughout (experiment): fluorescence anisotropy
A general note: In fluorescence polarisation assays a small probe gives low polarisation when free and higher when bound to something large.

By UniProt entry, the sequences of proteins in these tests, tags left out. Where a name states a change or a piece, a line headed by the entry shows the natural chain unless it says otherwise. Residues count along the entry.
UniProt P54132, 642-1290: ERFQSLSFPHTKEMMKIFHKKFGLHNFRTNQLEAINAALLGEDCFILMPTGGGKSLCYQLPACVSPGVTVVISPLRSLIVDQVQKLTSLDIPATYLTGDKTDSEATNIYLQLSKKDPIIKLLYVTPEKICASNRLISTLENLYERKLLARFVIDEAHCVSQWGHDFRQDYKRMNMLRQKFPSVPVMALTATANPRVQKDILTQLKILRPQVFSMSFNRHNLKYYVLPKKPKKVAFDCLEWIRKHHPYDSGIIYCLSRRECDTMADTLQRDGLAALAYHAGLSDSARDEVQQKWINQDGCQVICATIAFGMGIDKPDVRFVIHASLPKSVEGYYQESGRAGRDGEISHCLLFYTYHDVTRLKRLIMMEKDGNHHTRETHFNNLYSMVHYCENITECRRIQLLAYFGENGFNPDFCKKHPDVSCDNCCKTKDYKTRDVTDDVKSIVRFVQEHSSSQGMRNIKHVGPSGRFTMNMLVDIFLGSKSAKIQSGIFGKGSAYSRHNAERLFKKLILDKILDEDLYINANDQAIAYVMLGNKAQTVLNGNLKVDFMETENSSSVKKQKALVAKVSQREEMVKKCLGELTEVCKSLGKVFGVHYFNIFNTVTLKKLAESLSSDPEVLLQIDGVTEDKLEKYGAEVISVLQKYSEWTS
UniProt P15043: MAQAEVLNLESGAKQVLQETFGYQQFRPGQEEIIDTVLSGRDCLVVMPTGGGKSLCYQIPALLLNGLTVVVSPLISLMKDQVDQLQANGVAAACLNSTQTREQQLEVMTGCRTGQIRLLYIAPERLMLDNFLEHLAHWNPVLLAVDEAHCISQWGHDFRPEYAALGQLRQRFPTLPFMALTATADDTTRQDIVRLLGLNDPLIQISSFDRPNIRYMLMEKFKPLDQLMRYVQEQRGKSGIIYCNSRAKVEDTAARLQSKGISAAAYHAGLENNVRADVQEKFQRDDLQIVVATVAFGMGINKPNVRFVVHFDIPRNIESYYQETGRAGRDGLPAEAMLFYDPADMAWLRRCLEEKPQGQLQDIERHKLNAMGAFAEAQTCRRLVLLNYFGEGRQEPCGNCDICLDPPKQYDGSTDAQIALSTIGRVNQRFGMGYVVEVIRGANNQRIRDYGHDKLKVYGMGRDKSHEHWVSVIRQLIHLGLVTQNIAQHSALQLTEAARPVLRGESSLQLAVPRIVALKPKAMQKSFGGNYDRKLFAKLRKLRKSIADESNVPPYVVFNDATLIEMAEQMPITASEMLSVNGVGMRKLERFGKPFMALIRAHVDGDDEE

For one data set, the target named is BLM642-1290 (human) (UniProt P54132). As to conditions: 50 mM Tris-HCl pH 8.0, 50 mM NaCl, 1 mM DTT, 25 C, 200 nM protein, 5 nM 3'-fluorescein DNA, recombinant protein, single-stranded DNA; for binding result: residues 642-1290, label: 3'-fluorescein.
For a further data set, the target named is BLM full-length (human) (UniProt P54132). As to conditions: 50 mM Tris-HCl pH 8.0, 50 mM NaCl, 1 mM DTT, 25 C, 200 nM protein, 5 nM 3'-fluorescein DNA, recombinant protein, single-stranded DNA; for binding result: residues 1-1417, label: 3'-fluorescein.
Data set [1] concerns the target RecQ E. coli (Escherichia coli) (UniProt P15043). As to conditions: 50 mM Tris-HCl pH 8.0, 50 mM NaCl, 1 mM DTT, 25 C, 200 nM protein, 5 nM 3'-fluorescein DNA, recombinant protein, label: 3'-fluorescein, single-stranded DNA.
Setting [2] is: Cd2+ + Zn2+ equimolar (synergistic inhibition).

The pIC50 is the negative decadic logarithm of the IC50, by convention in mol/L.

pIC50: −log10 of the molar value. Construct, isoform or probe ends are uncertain for at least one entry. Weaker means in comparison with the reference protein, sequence or condition of that experiment. For part of these data: The direction of at least one scale is not stated here.

Turning to GCCCTGCTGCCGACCAACGAAGGT [F-24 ss], the binding result was “binds more weakly” with BLM642-1290 (human) (setting [2]); “binds more weakly” in the data set with BLM642-1290 (human) (Zn2+ alone, >50 uM (no inhibition <15 uM)); “binds more weakly” with BLM full-length (human) (setting [2]); “binds more weakly” with BLM full-length (human) (Zn2+ alone); “binds more weakly” in data set [1] (Cd2+ + Zn2+ equimolar (Cd2+ effect not reversed)). For the same sequence, the binding signal (% of activity without metal) in data set [1] (100 uM Zn2+ alone) worked out at 85.

Take GCCTCGCTGCCGTCGCCA [F-18]: the binding result was “binds” with BLM642-1290 (human) (50 uM Cd2+ + 0.5 mM NEM, 2 mM DTT); “binds more weakly” with BLM642-1290 (human) (50 uM Cd2+, 2 mM DTT); “binds more weakly” in the data set with BLM642-1290 (human) (100 uM Cd2+ and DNA pre-incubated with 5 mM His (partially restored), 10 nM DNA); “binds more weakly” in the data set with BLM642-1290 (human) (100 uM Cd2+ and DNA pre-incubated with 5 mM Val (partially restored), 10 nM DNA); “binds more weakly” in the data set with BLM642-1290 (human) (Cd2+, 0.2 mM DTT); “binds more weakly” with BLM642-1290 (human) (protein pre-incubated with 100 uM Cd2+, then 5 mM Cys, His or Val (not restored)). The pIC50 with BLM642-1290 (human) (IC50 of CdCl2 inhibiting binding (not protein affinity), 5 nM DNA, residues 642-1290, label: 3'-fluorescein) was 5.04; in the data set with BLM full-length (human) (IC50 of CdCl2 inhibiting binding (not protein affinity), 5 nM DNA, residues 1-1417, label: 3'-fluorescein), 5.18; in data set [1] (IC50 of CdCl2 inhibiting binding (not protein affinity), 5 nM DNA) it was 4.38.
